Laboratory results reported in patent publication US9944600B2, “Piperidine derivatives for GPR119 agonist” (CHONG KUN DANG PHARMACEUTICAL CORP., priority 2012, dated 2018).
For at least one compound, name, drawing or mass did not settle the structure.

Columns and labels:
GPR 119 Receptor [1] = target: T1, GPR 119 Receptor (Mus musculus, UniProt Q7TQP3); assay: Glucose tolerance test in normal mouse (animal test of activity for the GPR 119 receptor); type: in vivo; conditions: normal male C57/6J Jms mice; for Decrease % of AUC at 10 mg/kg: oral glucose 2 g/kg, whole blood glucose AUC
T1 construct: from tissue; host or cells: whole animal: male C57/6J Jms mice (normal) or diet induced obesity C57BL/6J mice
T1 sequence (Q7TQP3 1-335): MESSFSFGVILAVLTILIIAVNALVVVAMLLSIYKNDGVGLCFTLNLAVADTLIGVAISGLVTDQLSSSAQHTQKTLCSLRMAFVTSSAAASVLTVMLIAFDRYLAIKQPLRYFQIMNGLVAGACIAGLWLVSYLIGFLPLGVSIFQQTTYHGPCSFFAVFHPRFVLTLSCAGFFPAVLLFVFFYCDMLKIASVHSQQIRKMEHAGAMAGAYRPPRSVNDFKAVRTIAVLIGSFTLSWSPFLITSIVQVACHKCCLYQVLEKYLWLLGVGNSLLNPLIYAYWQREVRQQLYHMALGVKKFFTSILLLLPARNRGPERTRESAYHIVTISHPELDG
Description: Male C57/6J Jms mice of 6-7 weeks of age were fasted for 16 hours before the start of glucose tolerance test. The experimental animal groups consist of: • A. a vehicle group (10% EtOH, 20% HPBCD in saline), • B. a positive control group administered with MBX-2982 (10 mg/kg), and • C. test groups administered with compound 516, 581, 586, 612, 640, 644 or etc. (10 mg/kg).
Before compound administration, that is, at 0 hour, whole blood glucose level was determined using a Glucometer (ACCU-CHEK, Roche). At 30 minutes after compound administration, whole blood glucose level was determined once again, and 20% glucose (2 g/kg/10 mL) was administered orally. Whole blood glucose level was determined at 20, 40, 60, 80, and 120 minutes after 20% glucose administration. Area under the curve (AUC) of whole blood glucose level was obtained using GraphPad Prism 5.0. The effect of glucose tolerance was adjudged with the corrected area under the curve (cAUC), on which the base value of glucose area under the curve was excluded.

GPR 119 Receptor [2] = target: T1, GPR 119 Receptor; assay: Glucose tolerance test / whole blood glucose level change in disease model animal (DIO mouse); type: in vivo; conditions: for Whole Blood Glucose Level Change (%) by drug administration: DIO mouse, daily
Description: Male C57BL/6J mice of 6.5 weeks of age were taken with high fat diet (60% kcal, Research Diets) for 12 weeks. The obtained male diet induced obesity (DIO) C57BL/6J mice of 18.5 weeks of age were fasted for 16 hours before the start of glucose tolerance test. The experimental animal groups consist of: • A. a vehicle group (10% EtOH, 20% HPBCD in D.W.), • B. a positive control group administered with Sitagliptin (30 mg/kg), and • C. test groups administered with compound 770 and Compound 1028 (10, 30 mgkg and combination administration with sitagliptin 30 mg/kg).
Each test compounds was administered at the same time of every day for 2 weeks. Before the compound administration, whole blood glucose level was determined using a Glucometer (ACCU-CHEK, Roche). At 30 minutes after compound administration, whole blood glucose level was determined once again, and 20% glucose (2 g/kg/10 mL) was administered orally. Whole blood glucose level was determined at 20, 40, 60, 80, and 120 minutes after 20% glucose administration. Area under the curve (AUC) of whole blood glucose level was obtained using GraphPad Prism 5.0. The effect of glucose tolerance was adjudged with the corrected area under the curve (cAUC), on which the base value of glucose area under the curve was excluded.
Whole blood glucose level was measured at about 1 hour after test compound administration from caudal vein of mice using Glucometer. Whole blood glucose level was determined three times totally, that is, (1) at prior to the start of drug administration, (2) after 1 week from the start of 2-weeks drug administration, and (3) after the termination of 2-weeks drug administration. Each determination was started with 20% glucose administration, and then perfomed at 20, 40, 60, 80, and 120 minutes after 20% glucose administration.

SMILES | Decrease % of AUC at 10 mg/kg (GPR 119 Receptor [1]) | Whole blood glucose level change (drop effect in blood glucose level), alone-administration (GPR 119 Receptor [2]; DIO C57BL/6J mouse, daily for 2 weeks, 10 or 30 mg/kg (dose not given), oral glucose 2 g/kg) | Whole blood glucose level change (drop effect in blood glucose level), co-administration with Sitagliptin (GPR 119 Receptor [2]; DIO C57BL/6J mouse, daily for 2 weeks, combination with sitagliptin 30 mg/kg, oral glucose 2 g/kg) | Whole Blood Glucose Level Change (%) by drug administration (GPR 119 Receptor [2]; 10 mpk alone, 0 week (prior to start of administration)) | Whole Blood Glucose Level Change (%) by drug administration (GPR 119 Receptor [2]; 10 mpk alone, 1 week) | Whole Blood Glucose Level Change (%) by drug administration (GPR 119 Receptor [2]; 10 mpk alone, 2 weeks) | Whole Blood Glucose Level Change (%) by drug administration (GPR 119 Receptor [2]; 30 mpk alone, 0 week (prior to start of administration)) | Whole Blood Glucose Level Change (%) by drug administration (GPR 119 Receptor [2]; 30 mpk alone, 1 week) | Whole Blood Glucose Level Change (%) by drug administration (GPR 119 Receptor [2]; 30 mpk alone, 2 weeks) | Decrease % of AUC (drop effect in blood glucose level) (GPR 119 Receptor [1]; 10 mg/kg, oral 20% glucose 2 g/kg, whole blood glucose cAUC)
CC(C)(F)CN1CCC(COc2ccc(-c3ccc(C(=O)N4CCC[C@H]4C(N)=O)c(F)c3)cc2)CC1 [Compound 644, (S)-1-(3-fluoro-4′-((1-(2-fluoro-2-methylpropyl)piperidin-4-yl)methoxy)biphenylcarbonyl)pyrrolidine-2-carboxamide] | 39% | – | – | – | – | – | – | – | – | –
CCC(F)(CC)CN1CCC(COc2ccc(-c3ccc(C(=O)N4CCC[C@H]4C(N)=O)c(F)c3)cc2C#N)CC1 [Compound 1000, (S)-1-(3′-cyano-4′-((1-(2-ethyl-2-fluorobutyl)piperidin-4-yl)methoxy)-3-fluorobiphenylcarbonyl)pyrrolidine-2-carboxamide] | 38% | – | – | – | – | – | – | – | – | –
CC(C)(F)CN1CCC(COc2ccc(-c3ccc(C(=O)N4CCC[C@H]4C(N)=O)c(F)c3)c(C#N)c2)CC1 [Compound 1028] | 46% | 28.5% | 32.3% | 0% | 22.5% | 26.5% | 0% | 28.5% | 29.0% | 46%
